Drawing on PubChem BioAssay AID1347423 (Functional Genomics Laboratory (NCATS/FGL), 2020), this text covers z-score for 67 sequences.

Hit rate of the full screen: of about 52,000 sequences, about 210 (0.4%) were called active.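 The calls were made as follows: active = gene whose silencing raises cell survival under the drug, median off-target-corrected z-score across its silencing RNAs 2 or more; inactive = the rest.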 Some of the results follow.

The assay can be described thus: Resistance to Poly (ADP-Ribose) Polymerase inhibitor: Gene Identification via Genome-wide siRNA Screen. To be noted: mouse BRCA2 R2336H ES cells, olaparib, CellTiter-Glo viability; hits give high values. In short, it runs like this:
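Genome-wide siRNA screen (3 siRNAs/gene, 20 nM) in mouse ES cells carrying hypomorphic BRCA2 R2336H; olaparib 500 nM added 48 h post-transfection, CellTiter-Glo viability 72 h later. Normalized to plate-median negative control; MAD z-scores, gene median, seed-adjusted.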
Take GCCACGGGUAUAUCUAUAGTT against Tigd4: the z-score was inactive: -0.282.

For the sequence GCAAUGCGACGUGCUCUAUTT against LOC330863, the z-score is inactive: -0.895. As to GCAAUUUCCUCUCGAGACGTT against Olfr750, the z-score is inactive: 0.654. The same measure for GGAAGGUGUUCGUAGAGAATT against Mad2l1: inactive: 1.54; for GCAGCUCUAGGUGUUCAGUTT against Gje1: inactive: -0.154. The same measure for GGAUUGUAAUCAAAUGUGCTT against Plekhh2: inactive: 0.147; for GGCCUGUCUCUCUUAUUAATT against Btg2: inactive: -0.799. For “GAAAGAAACCAUGUUCACATT against 1110008K04Rik”, the z-score is inactive: 0.0619.

Consider CUUAGUGCUCUGGGAGCAGTT against Ms4a5, for which the z-score was inactive: -0.433. For the sequence UGCUGGAUUCCAUUGACCUTT against Olfr675, the z-score was inactive: -0.109. The same measure for GGUCUACAAUGUGAAAAUCTT against Clnk: inactive: -0.392. The figure for GGUUGUAGGAGAGGAAGCCTT against Apob48r is inactive: -0.228. The figure for CGACAUGAAGUGAUUCAUUTT against Zfp459 is inactive: 0.0617; for GUUACCCUGAAGGUCAAUATT against Gstm3 it is inactive: 1.36. For the sequence GGUGUUGUCUGUGUUUUACTT against Olfr507, the z-score was inactive: 0.382. The same measure for CCAAUGUUACGAGAAACUUTT against Smug1: inactive: 0.958. The same measure for GGACCAAAUGUAAGAAAAATT against Cstl1: inactive: -1.58; for CCUAUAUUGAAUCUUCAACTT against Clptm1: inactive: -0.0402. The figure for GGAUGAGAGUAAGAUCUCGTT against Vipr2 is inactive: 1.22; for GUCCCUGAAAGAUGAAGAUTT against Gpsn2 it is inactive: 0.589; for GGACAGUGACAAACUGAACTT against Caml it is inactive: -1.18. For the sequence GGUCGUGCAUGACAACUAUTT against Itk, the z-score is inactive: -0.0931. Consider “GGCAUCUAAAGGAAAGAAATT against 1810030O07Rik”, for which the z-score was inactive: -1.87. The same measure for GGAAACAGAACCAAGUUAATT against Thy28: inactive: 0.333. The same measure for GGAGAGAAUGUUUUGGAAUTT against Stat5b: inactive: 1.23; for GGAAUUUGUGGAGAAACUATT against Gabbr1: inactive: -1.18. Turning to GGACGGAGCUGUAAUUGCATT against Arhgef12, the z-score was inactive: -0.937.

For UUUCUUGGUGGGAUUGACUTT against Taar7b, the z-score was inactive: 0.329.

CGAUAGUUUACAUGCUGAATT against LOC73072: the z-score was inactive: 0.417.

With “GGUGACUUGGGCAUUUUUUTT against E130203B14Rik”, the z-score was inactive: -0.502. As for GGAAGAAACACCAGUAAGATT against Hbp1, the z-score is inactive: 0.477. The figure for GGCUUUUCAAUUCCACCUUTT against Arid5b is inactive: 0.42; for “GGACUUGCAUUCUUAUGCUTT against 4930578C19Rik” it is inactive: -0.524; for GGAAAUCAGAGAGAAGAUGTT against Nubp1 it is inactive: -0.45. The figure for GGACAAAGUCUAGAAACUATT against Lrrc2 is inactive: -1.55.

“GGAAGACUAGGAGAGACGGTT against E030024M05Rik”: the z-score is inactive: -0.179. GAUCACACAUAUCAUCUCUTT against Dusp15: the z-score is inactive: 0.101. As for GGUACUGUCGGUAUCCCACTT against Gcc1, the z-score was inactive: -0.371.

In the case of GGUAAAGAAUCUCAACAGCTT against Pet112l, the z-score is inactive: 1.86. The same measure for “UUGUGACCAAUUUCUGAAUTT against 4921509E05Rik”: inactive: -0.101; for GCAAAUAUAGCAGUGAAAUTT against Nat1: inactive: -0.646; for GCAUGAUGAUUCGUCAGACTT against Ero1l: inactive: 0.403. The figure for “GGGUGAAACCCAUAAAAAUTT against 1700049G17Rik” is inactive: -0.013; for CGCUAUAACCAUUAGGUCUTT against Slc22a17 it is inactive: -0.0804. The same measure for GCCGACUUUAAUGACUGCUTT against Cklfsf4: inactive: 0.322; for GGGAAAUAAGGAGCUUCCUTT against Ptgs2: inactive: -0.389.

Take GGCAUGAAUAGAAUUCUAGTT against Zfp367: the z-score was inactive: 0.132.

For the sequence GGUUGCUGUGUUGAAGAAATT against Ttbk1, the z-score is inactive: -0.052. Turning to GGAGUUGUUACUCUAUUUUTT against Pkd2l2, the z-score was inactive: 2.24. The figure for GGAUAAUGAGCUGAACAUATT against Nek7 is inactive: -1.13; for GGAUGCCCUUGUCACAAAGTT against Fbl it is inactive: -1.31; for GGCUGUUUCUGUCAUGGUUTT against Nup133 it is inactive: -1.67.

In the case of GCUCAGAAUACAUGGAGCUTT against Btn1a1, the z-score was inactive: -1.08. The figure for “GGAAUGAUUUGGAAGAUAUTT against 1500002I11Rik” is inactive: 0.148.

Consider “GGACUCAACUGCACUGUUGTT against 9030607L17Rik”, for which the z-score is inactive: 0.0395. UAGAAUUGAUUGAGGACUCTT against Ly6c: the z-score was inactive: 0.171. Take CGGUAUCACGGUUAUCCUUTT against Olfr215: the z-score was inactive: 0.142. The same measure for CCGAGUGCCGACAAAGUGATT against DXImx40e: inactive: 2.3; for GGAGCCUUUAAUCUCAUUATT against Wbp1: inactive: 1.04. The figure for “CCACAUGUUUGUCUCAAAATT against 4933433P14Rik” is inactive: 0.91; for GGGAGUGCCCUCCUAAUAGTT against Ofd1 it is inactive: -1.22. Take GCUCUACAUCGAAUUGCUGTT against Lig4: the z-score is inactive: -0.874. GCUGGGCUUCAACGAUUACTT against Efna4: the z-score was inactive: 0.78.

With CGGCUUACCGUAUUCAUCGTT against Dhx32, the z-score was inactive: -0.784.

Take “CCCGCUGGUGUUCCUUUGUTT against 2610039C10Rik”: the z-score is inactive: -0.97. The figure for GCACUGCAACACUUGGUCCTT against Lcn12 is inactive: 0.494.

For the sequence “CCCAGAAUUUGAGUUACUCTT against D730018G16”, the z-score was inactive: 0.947.
